Data as given in PubChem BioAssay AID686943 (Drosophila RNAi Screening Center, 2013).

Screen: 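Search across the genome for regulators of signalling from receptor tyrosine kinase to ERK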 (primary screen)
Cells: Drosophila S2R+ haemocyte-like cells expressing YFP-tagged ERK (Rolled)
Knock-down reagent: long dsRNA against Drosophila genes
Challenge: insulin stimulation versus unstimulated cells; dose and duration not given
Read-out: 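Antibody staining for doubly phosphorylated ERK divided by ERK-YFP signal, as plate z-scores, in insulin-treated and untreated cells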
Scale: replicate 1, z-score of dpERK with insulin and replicate 2, z-score of dpERK with insulin: higher = more active ERK per ERK-YFP after insulin; replicate 1, z-score of dpERK under basal conditions: higher = more basal active ERK per ERK-YFP; replicate 1, z-score of ERK-YFP with insulin: higher = more YFP-tagged ERK signal
In all, the deposit lists about 23,000 reagents; shown is an unselected part of those with a known target gene and a result. 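Extra replicates exist only for a retested subset of genes; insulin dose and duration not given; both raised and lowered dpERK matter.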 A plus sign joins genes that one reagent is predicted to hit. The record does not give: the amount of reagent, the time to read-out.

replicate 1, z-score of dpERK with insulin	replicate 2, z-score of dpERK with insulin	replicate 1, z-score of dpERK under basal conditions	replicate 1, z-score of ERK-YFP with insulin	gene knocked down	amplicon
1.1	0.96	0.52	0.02	CG13031	DRSC09911
-0.4	-0.43	0.93	0.17	Lamtor2 + CG30120	DRSC05726
-0.66	-1.15	-0.54	0.11	Lamtor2 + CG30120	DRSC06922
-0.77	0.38	0.05	0.56	CG18335	DRSC06723
0.93	0.41	-0.54	0.79	Cpr72Ec (Cuticular protein 72Ec)	DRSC10449
-0.61	0.19	0.13	0.72	CG12347	DRSC14502
1.83	-0.01	0.37	0.5	CG6066	DRSC15959
0.26	0.91	0.56	0.38	CG6066	DRSC22228
-0.18	0.77	-0.43	0.36	CG30344	DRSC22510
0.05	-0.09	0.18	0.27	CG15186	DRSC12566
0.46	-0.08	1.37	1.65	aurA (aurora A)	DRSC16905
0.04	0.06	-0.48	-0.01	nec (necrotic)	DRSC06769
-0.07	0.48	-0.85	-0.08	CG6026	DRSC15950
-0.32	-0.19	0.46	0.87	CG11562	DRSC00316
-0.22	0.73	0.58	0.71	CG3803	DRSC04420
0.44	0.58	-0.12	0.16	CG11037	DRSC11631
0.13	-0.28	0.26	0.38	qsm (quasimodo)	DRSC05896
-2.04	-1.67	-0.26	0.6	qsm (quasimodo)	DRSC06393
-0.24	-1.35	-0.4	-0.28	Alp9 (Alkaline phosphatase 9)	DRSC10486
1.84	1.47	-1.4	-3.92	Topors (Topoisomerase I-interacting protein)	DRSC06531
-1.95	-1.05	-0.34	0.85	HemK1 (HemK methyltransferase 1)	DRSC03253
0.3	0.02	-0.04	-0.93	Polr3A (RNA polymerase III subunit A)	DRSC19766
-0.85	-0.09	1.04	0.08	Pgd (Phosphogluconate dehydrogenase)	DRSC18697
-0.04	-0.48	1.71	0.14	CG8180	DRSC07092
-0.09	-0.71	-1.82	0.82	CG8180	DRSC07093
0.81	0.74	0.82	0.2	Muc91C (Mucin 91C)	DRSC16297
1.61	2.45	-1.51	-0.57	Muc91C (Mucin 91C)	DRSC21696
0.09	0.83	0.01	0.17	t-Grip128 (testis-specific gamma-tubulin ring protein 128)	DRSC07853
0.78	0	0.31	-0.27	CG9920	DRSC16578
0.34	0.17	0.15	-1.65	yin	DRSC18854
0.06	-0.11	0.24	0.6	yin	DRSC21889
-0.38	-0.52	-1.32	-0.13	Nprl3 (Nitrogen permease regulator-like 3)	DRSC11044
-0.77	-0.79	-1.12	0.66	CG14298	DRSC14777
0.86	0.58	-0.11	-0.41	CG14854	DRSC14978
0.2	0.14	0.39	0.21	ATP8 (retired record)	DRSC21277
0.31	-0.1	0.11	-0.15	CG12861	DRSC06201
-0.5	0.11	-0.86	1.98	CG12861	DRSC21960
0.02	0.29	-0.15	0.45	S-Lap2 (Sperm-Leucylaminopeptidase 2)	DRSC10628
0.29	0.23	-0.56	0.55	CG33299	DRSC01085
0.31	0.23	-0.82	0.23	CG14126 (retired record)	DRSC10130
0.44	1.04	-0.64	0.97	CG10993	DRSC19362
-0.63	-0.58	-0.37	-0.53	CG3527	DRSC18307
0.28	1.41	0.51	0.42	nSyb (neuronal Synaptobrevin)	DRSC08727
-2.37	0.95	-0.05	0.75	nSyb (neuronal Synaptobrevin)	DRSC22961
-0.05	-0.27	1.55	0.05	aspr (asperous)	DRSC20689
0.11	0.22	1.41	0.48	aspr (asperous)	DRSC20690
0.05	0.02	-0.16	0.36	CG18130	DRSC19790
-0.25	-0.8	-0.31	0.28	mRF1 (mitochondrial translation release factor 1)	DRSC02880
-0.22	-0.01	1.02	-0.26	CG12862	DRSC06202
0.22	-0.68	-0.17	0.45	Tsp42Ei (Tetraspanin 42Ei)	DRSC06189
-0.6	-0.21	0.15	0.28	Ack-like (Activated Cdc42 kinase-like)	DRSC07500
-0.43	-0.96	-0.36	0.5	Ack-like (Activated Cdc42 kinase-like)	DRSC21845
-0.13	-0.21	-0.6	0	Rcd7 (Reduction in Cnn dots 7)	DRSC10100
0.22	1.24	-0.17	0.3	CG32085	DRSC10138
-0.13	-0.03	0.65	0.61	CG32085	DRSC10139
0.14	-0.4	1.33	-0.56	CG32085	DRSC10576
-2.57	-4.58	-1.71	-4.79	Fs(2)Ket (Female sterile (2) Ketel)	DRSC03328

Copied from above, 5 entries:
replicate 1, z-score of dpERK with insulin	replicate 2, z-score of dpERK with insulin	replicate 1, z-score of dpERK under basal conditions	replicate 1, z-score of ERK-YFP with insulin	gene knocked down	amplicon
-0.25	-0.8	-0.31	0.28	mRF1 (mitochondrial translation release factor 1)	DRSC02880
-0.22	-0.01	1.02	-0.26	CG12862	DRSC06202
0.22	-0.68	-0.17	0.45	Tsp42Ei (Tetraspanin 42Ei)	DRSC06189
-0.6	-0.21	0.15	0.28	Ack-like (Activated Cdc42 kinase-like)	DRSC07500
-0.43	-0.96	-0.36	0.5	Ack-like (Activated Cdc42 kinase-like)	DRSC21845
